Reference: patent US20150031734A1, “PHARMACEUTICAL COMPOSITION CONTAINING MIRABEGRON” (ASTELLAS PHARMA INC., priority 2012, published 2015)
Some results were stated once for a whole list of compounds, not compound by compound. At least one structure is not confirmed: it was looked up by name or label, or the drawing left a doubt.

Test: Dissolution test, paddle method, JP2, 150 rpm, Experimental Example 2
Format: physicochemical
Details: 900 mL JP2, paddle 150 rpm, 25 mg as mirabegron, FIG. 1

CCCCCCCCCCCCOS(=O)(=O)O.CCCCCCCCCCCCOS(=O)(=O)O.Nc1nc(CC(=O)Nc2ccc(CCNC[C@H](O)c3ccccc3)cc2)cs1 [Example 1]
Dissolution rate: unexpectedly reduced in comparison with mirabegron
